For 1 molecule, binding results are on record in article doi:10.1101/2025.04.28.650916.

Results are given in words; binding and its absence hold for the method and conditions named.

This assay concerns the target T1, Glycine-Rich RNA-binding Protein 7 (GRP7), recombinant full-length (Arabidopsis thaliana), Q03250.
T1 chain: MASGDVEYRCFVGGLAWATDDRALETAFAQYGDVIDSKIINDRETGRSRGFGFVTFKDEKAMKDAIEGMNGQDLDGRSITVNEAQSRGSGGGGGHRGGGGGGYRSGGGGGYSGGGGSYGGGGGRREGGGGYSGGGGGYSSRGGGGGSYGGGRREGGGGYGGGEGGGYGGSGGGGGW
The assay is described as follows: SEC. The note with it: remark: other sources report otherwise.

B1: Glycine-Rich RNA-binding Protein 7 (GRP7), recombinant full-length, Q03250 1-176 (protein)
chain: T1 chain
For the molecule B1, the binding entry is recorded as “no binding”.
